## Primary screen of a compound library

Amino acid sequences for entries named in this document (tags omitted). Residues count along the entry.
UniProt Q4DA54, 1-478: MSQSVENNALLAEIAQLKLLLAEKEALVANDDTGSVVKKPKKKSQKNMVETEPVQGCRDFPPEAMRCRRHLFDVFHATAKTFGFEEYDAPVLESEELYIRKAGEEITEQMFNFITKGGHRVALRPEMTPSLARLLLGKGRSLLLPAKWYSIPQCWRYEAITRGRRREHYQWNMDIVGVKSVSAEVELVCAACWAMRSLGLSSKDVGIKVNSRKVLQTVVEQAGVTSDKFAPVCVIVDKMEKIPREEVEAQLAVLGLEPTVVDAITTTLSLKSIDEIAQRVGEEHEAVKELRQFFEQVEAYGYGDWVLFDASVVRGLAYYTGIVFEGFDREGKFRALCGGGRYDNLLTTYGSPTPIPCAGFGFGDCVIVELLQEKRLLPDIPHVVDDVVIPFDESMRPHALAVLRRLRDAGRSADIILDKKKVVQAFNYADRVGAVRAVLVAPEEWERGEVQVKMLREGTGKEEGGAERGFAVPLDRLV
UniProt P9WNZ1, whole entry: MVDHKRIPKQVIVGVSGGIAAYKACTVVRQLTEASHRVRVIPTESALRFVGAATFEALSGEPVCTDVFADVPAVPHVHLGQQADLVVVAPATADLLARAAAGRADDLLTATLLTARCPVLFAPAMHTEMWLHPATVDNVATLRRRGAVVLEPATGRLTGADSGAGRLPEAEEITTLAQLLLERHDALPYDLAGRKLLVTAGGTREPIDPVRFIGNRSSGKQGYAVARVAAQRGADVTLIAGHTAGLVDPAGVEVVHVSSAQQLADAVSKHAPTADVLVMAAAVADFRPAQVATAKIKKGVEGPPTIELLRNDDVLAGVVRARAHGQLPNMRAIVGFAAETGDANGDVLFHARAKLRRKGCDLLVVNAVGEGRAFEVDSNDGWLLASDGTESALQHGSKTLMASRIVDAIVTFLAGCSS

From ChEMBL document CHEMBL3988442, “University of Dundee, Small-Polar-MMV Screening Library” (2021).

A: 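Histidine-tRNA ligase, Trypanosoma cruzi CL Brener (UniProt Q4DA54). Enzyme assay of histidyl-tRNA synthetase; the read-out is not stated. Tested at 30 µM. Higher reads as stronger inhibition (inferred: compounds with an IC50 in retests scored well above the rest). Size under these conditions: about 69,000 compounds, about 31 of them at 50% or above in at least one test.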
B: 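Enzyme assay of CoaBC with a phosphate dye (Biomol Green) read at 650 nm. Target: Coenzyme A biosynthesis protein CoaBC, Mycobacterium tuberculosis (UniProt P9WNZ1). Tested at 30 µM. Direction is inferred from only a few compounds that gave an IC50; most scored high, so higher reads as stronger inhibition. Most strong results did not repeat in a second test. Of about 67,000 compounds tested this way, about 40 (0.06%) reached 50% or more in at least one test.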

Values are the deposited “Percent Effect”, in %.
The controls that fix the scale are not given in the record; negative values are as filed.
Compounds were drawn at random from those tested, without regard to their results.
Two or more numbers in one place are separate tests of the same structure; such repeats can differ widely.

structure: Cc1ccc(OCCSCCn2nc3ccccn3c2=O)cc1
A: 6.186%
B: 4.481%

structure: CS(=O)(=O)N1CCO[C@@H]2CCN(C(=O)c3cccs3)CC[C@H]21
A: 6.135%

structure: Cc1ccc(C(C)(O)CNC(=O)c2sccc2Br)o1 (stereo not shown)
A: -1.299%

structure: COCCN1C[C@@H]2CCCO[C@@H]2[C@H](N(C)Cc2ccco2)C1
A: 2.732%
B: 12.95%

structure: CCCn1nc2c(cc1=O)CN(Cc1ncc(C(C)(C)C)o1)CC2
A: 5.435%
B: 2.621%

structure: O=C(CCc1nc2cccnc2[nH]1)NCc1ccncc1
A: 0.5848%
B: 4.798%

structure: CCc1cc(NCCNC(C)=O)nc(N2CCOCC2)n1
A: 5.263%

structure: CCc1cnc(CN(C)C2CCN(CCCNS(C)(=O)=O)C2)o1 (stereo not shown)
A: 0.8772%
B: -2.116% and 23.54%

structure: Cc1noc([C@@]23CCO[C@@H]2CCN(C(=O)CCC(C)C)C3)n1
A: 6.468%
B: -4.194%

structure: CCCN1CCC(CC(=O)N[C@H](C(=O)O)c2cccc(F)c2F)CC1
A: 3.061%
B: 10.32%

structure: COc1ccc(-c2nnc(C(C)N3CCOCC3)o2)cc1 (stereo not shown)
A: 6.897%
B: 2.244%

structure: Fc1ccccc1CN1CCC(c2noc(-c3ccccn3)n2)CC1
A: 3.383%
B: 6.294%

structure: CC(C)(O)c1cn(C2CCN(c3ncccc3Cl)CC2)nn1
A: 1.734%
B: -2.233%

structure: CN(Cc1ccco1)[C@@H]1CN(Cc2cnn(C)c2)[C@@H]2CCCO[C@H]12
A: 10.2%
B: 2.596%

structure: CCN(CC)S(=O)(=O)N(CC)Cc1ccc2c(c1)OCCO2
A: 6.286%
B: 2.867%

structure: CSCCCNC(=O)c1coc(Cn2cnc3ccccc32)n1
A: 1.807%
B: -0.6098%

structure: c1cc2c(cc1C[C@@H]1CC[C@H](CN3CCCOCC3)O1)OCO2
A: 5.946%
B: -3.636%

structure: Cc1cc(C(=O)N(C)Cc2cnn(C)c2)c(NC(=O)C(C)(C)C)s1
A: 7.595%
B: 0.9615%

structure: O=C(c1ccc[nH]1)N(Cc1ccc(O)cc1)CC1CC1
A: 6.863%
B: -3.74%

structure: CC[C@H]1CN(S(=O)(=O)c2ccc(OC)cc2)CC[C@H]1CC(=O)O
A: 10.89%
B: 7.449%

structure: CCc1nccn1CCCNc1nccc(-c2c(C)nn(C)c2C)n1
A: 1.622%
B: 5.909%

structure: N#Cc1cccc(CN(CC(=O)N2CCCC2)CC2CCCO2)c1 (stereo not shown)
A: 2.703%
B: -1.364%

Repeated from the top, 2 entries:

Cc1ccc(OCCSCCn2nc3ccccn3c2=O)cc1 read A: 6.186%; B: 4.481%.
CS(=O)(=O)N1CCO[C@@H]2CCN(C(=O)c3cccs3)CC[C@H]21 read A: 6.135%.